Test results: PMC1978536, “MVB-12, a Fourth Subunit of Metazoan ESCRT-I, Functions in Receptor Downregulation” (PLoS ONE, 2007)
These are yes or no findings as the source states them, for the method shown. In cells and extracts the contact can be indirect. Some binding calls cover weakened binding; strength is not graded here. Where a sequence is shown, tags or fusion partners need not be part of it.

Amino acid sequences for entries named in this document (tags omitted).
UniProt Q99816: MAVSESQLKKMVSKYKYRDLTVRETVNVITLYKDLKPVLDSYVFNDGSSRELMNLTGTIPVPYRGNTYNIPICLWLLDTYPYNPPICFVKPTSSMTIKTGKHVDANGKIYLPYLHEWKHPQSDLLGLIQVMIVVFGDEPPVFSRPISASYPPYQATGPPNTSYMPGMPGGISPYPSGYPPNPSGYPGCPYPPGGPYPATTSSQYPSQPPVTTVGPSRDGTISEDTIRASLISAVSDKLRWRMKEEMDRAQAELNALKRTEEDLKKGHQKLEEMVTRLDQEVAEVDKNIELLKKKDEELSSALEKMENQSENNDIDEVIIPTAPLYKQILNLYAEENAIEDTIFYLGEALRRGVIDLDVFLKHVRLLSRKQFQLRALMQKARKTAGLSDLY

Molecular target: T1, GFP:MVB12B (human) (UniProt Q9H7P6)
T1 sequence: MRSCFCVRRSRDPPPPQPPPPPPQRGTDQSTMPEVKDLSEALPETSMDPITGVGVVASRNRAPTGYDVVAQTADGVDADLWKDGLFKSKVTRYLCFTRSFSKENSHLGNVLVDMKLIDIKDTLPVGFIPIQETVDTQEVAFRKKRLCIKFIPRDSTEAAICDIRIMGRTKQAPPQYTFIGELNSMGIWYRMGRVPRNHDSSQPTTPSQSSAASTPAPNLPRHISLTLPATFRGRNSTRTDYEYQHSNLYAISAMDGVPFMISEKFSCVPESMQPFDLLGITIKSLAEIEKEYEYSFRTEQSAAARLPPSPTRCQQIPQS
Assay: co-IP; extracts of HeLa cells transfected with GFP:MVB12A or GFP:MVB12B; immunoprecipitation with antibodies to GFP (GST antibodies as control); blot probed for TSG101

- binding: binds
Substance: human TSG101 (endogenous) (from UniProt Q99816 1-390)
